Test results as given in PubChem BioAssay (EPA / NIEHS).
This list was built around the results that the source calls inconclusive (neither active nor inactive); the mix of calls is not that of the screen. Potencies of inconclusive entries are doubtful fits and often do not repeat. The source made the active and inactive calls. Rule for the calls: active = hit-call score of the fitted dose curve at least 0.9, where 1 is the maximum; inconclusive = response in the unintended direction; inactive = score below 0.9.

Chains of the proteins cited; added tags and fusions are not shown.
UniProt P04637, whole entry, looked up: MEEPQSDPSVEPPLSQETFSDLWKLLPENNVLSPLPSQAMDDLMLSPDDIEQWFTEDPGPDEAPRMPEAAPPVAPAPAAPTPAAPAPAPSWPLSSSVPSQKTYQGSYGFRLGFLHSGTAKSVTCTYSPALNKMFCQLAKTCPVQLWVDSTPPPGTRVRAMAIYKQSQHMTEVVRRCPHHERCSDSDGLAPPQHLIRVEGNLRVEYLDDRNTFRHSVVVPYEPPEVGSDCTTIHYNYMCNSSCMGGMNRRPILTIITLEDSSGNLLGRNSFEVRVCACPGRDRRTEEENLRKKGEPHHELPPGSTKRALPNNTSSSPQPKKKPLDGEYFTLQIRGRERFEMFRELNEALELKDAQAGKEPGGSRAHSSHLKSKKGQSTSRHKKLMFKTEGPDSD

biological target: Cellular tumor antigen p53 (Homo sapiens) (UniProt P04637); test: TOX21_p53_BLA_p3_ratio: Tox21 HCT-116 p53 Agonism Beta-lactamase Assay, Ratio, Phase 3 (AID 2283596)
Method in brief: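 Cells were seeded at 4000/well, rested 5 h at 37C, then dosed with DMSO compound solutions (217-fold dilution) for 16 h. CCF4-AM substrate was loaded for 2 h at room temperature, and the 460/530 nm emission ratio was fitted for gain of signal versus DMSO.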

| Compound | AC50 | outcome |
| --- | --- | --- |
| COC(=O)c1ccccc1C(=O)c1ccc(OCCN2CCCCC2)cc1 | inconclusive: 23 µM |  |
| CC(CN1CC(=O)NC(=O)C1)N1CC(=O)NC(=O)C1 (centres undefined) |  | inactive |
| CC[N+](CC)(CCNC(=O)C(=O)NCC[N+](CC)(CC)Cc1ccccc1Cl)Cc1ccccc1Cl |  | inactive |
| CCCCC(CC)COC(=O)C=Cc1ccc(OC)cc1 (centres undefined) | inconclusive: 23 µM |  |
| Cc1ccc(N(CCO)CCO)cc1 | inconclusive: 46.1 µM |  |
| O=C(O)c1cccc(/C=C2/C[C@@H]3[C@@H](/C=C/[C@@H](O)C4CCCCC4)[C@H](O)C[C@@H]3O2)c1 | inconclusive: 23 µM |  |
| Cl[Si](Cl)(c1ccccc1)c1ccccc1 | inconclusive: 47 µM |  |
| CNC(=O)c1ccccc1Sc1ccc2c(/C=C/c3ccccn3)n[nH]c2c1 | active: 1.02 µM |  |
| CCCCCN=C(N)N/N=C/c1c[nH]c2ccc(OC)cc12 | inconclusive: 23 µM |  |
| COC(=O)[C@H]1[C@H]2C[C@@H]3c4[nH]c5cc(OC)ccc5c4CCN3C[C@H]2C[C@H](OC)[C@@H]1OC | inconclusive: 37 µM |  |
| O=C(O)CN(CC(=O)O)CC1=CC2C(=CC1=O)Oc1cc(O)c(CN(CC(=O)O)CC(=O)O)cc1C21OC(=O)c2ccccc21 (centres undefined) | inconclusive: 23 µM |  |
| O=c1[nH]c2ccccc2n1CCCN1CCN(C(c2ccccc2)c2ccccc2)CC1 | inconclusive: 23 µM |  |
| COc1ccccc1OCC(O)CN1CCN(CC(=O)Nc2c(C)cccc2C)CC1 (centres undefined) |  | inactive |
| CNCCS(=O)(=O)O | inconclusive: 46.4 µM |  |
| Nc1nc2ccc(OC(F)(F)F)cc2s1 | active: 7.29 µM |  |
| O=c1n(CCCN2CCN(c3cccc(Cl)c3)CC2)nc2ccccn12 |  | inactive |
| CCCCCCCCCCCCCCCCCCCCCC(=O)Nc1ccn([C@@H]2O[C@H](CO)[C@@H](O)[C@@H]2O)c(=O)n1 | active: 23 µM |  |
| CC(=O)Nc1ccn(C2COC(COC(=O)c3ccccc3)O2)c(=O)n1 (centres undefined) | active: 11.7 µM |  |
| CCC(=O)O[C@]1(C(=O)CCl)[C@@H](C)C[C@H]2[C@@H]3CCC4=CC(=O)C=C[C@]4(C)[C@@]3(F)[C@@H](O)C[C@@]21C | inconclusive: 23 µM |  |
| CN(C)c1cc(NC(=O)CNC(C)(C)C)c(O)c2c1C[C@H]1C[C@H]3[C@H](N(C)C)C(=O)C(C(N)=O)=C(O)[C@@]3(O)C(=O)C1=C2O | inconclusive: 23 µM |  |
| CC(=O)Oc1ccc([N+](=O)[O-])cc1CCl | active: 73.1 µM |  |
| CCN(CC)C(=O)c1cccnc1 | inconclusive: 23 µM |  |
| CCCCCCCCCCCC(=O)N(CC)CC | inconclusive: 46.1 µM |  |
| CCOCCOCCOC(C)=O | inconclusive: 46.8 µM |  |
| CC(C)[C@@H](N)C(=O)O |  | inactive |
| C[C@@H](CN(C)C)CN1c2ccccc2Sc2ccccc21 | inconclusive: 10.3 µM |  |
| CC1(C)[C@H]2CC[C@](C)(C2)[C@H]1O | inconclusive: 47.5 µM |  |

Some of these compounds in order of length of the SMILES, high to low.

| Compound | AC50 | outcome |
| --- | --- | --- |
| CCCCCCCCCCCCCCCCCCCCCC(=O)Nc1ccn([C@@H]2O[C@H](CO)[C@@H](O)[C@@H]2O)c(=O)n1 | active: 23 µM |  |
| CNC(=O)c1ccccc1Sc1ccc2c(/C=C/c3ccccn3)n[nH]c2c1 | active: 1.02 µM |  |
| CCOCCOCCOC(C)=O | inconclusive: 46.8 µM |  |
